This experiment addresses T1, Aromatase (Homo sapiens, UniProt P11511).
T1 sequence (P11511 whole entry): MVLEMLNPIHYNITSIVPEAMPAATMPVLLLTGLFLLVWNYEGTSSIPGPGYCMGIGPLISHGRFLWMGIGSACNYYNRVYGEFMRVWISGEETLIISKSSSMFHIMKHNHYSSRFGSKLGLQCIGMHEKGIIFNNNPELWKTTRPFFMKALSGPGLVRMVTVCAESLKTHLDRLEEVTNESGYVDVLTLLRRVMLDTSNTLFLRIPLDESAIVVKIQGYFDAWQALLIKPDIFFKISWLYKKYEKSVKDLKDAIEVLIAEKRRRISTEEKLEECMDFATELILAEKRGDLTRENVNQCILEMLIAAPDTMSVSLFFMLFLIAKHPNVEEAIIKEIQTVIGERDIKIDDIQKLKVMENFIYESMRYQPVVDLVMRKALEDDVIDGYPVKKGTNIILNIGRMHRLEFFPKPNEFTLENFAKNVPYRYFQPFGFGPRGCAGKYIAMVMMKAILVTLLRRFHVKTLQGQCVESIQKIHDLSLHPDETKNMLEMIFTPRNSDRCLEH

The structures appear in SMILES notation. pIC50: −log10 of the molar value.

As usually defined, the pIC50 is −log10 of the IC50, conventionally taken in molar units. As for `CC(C)(C#N)c1cc(Cn2cncn2)cc(C(C)(C)C#N)c1` [ANASTROZOLE], the pIC50 was 7.92.
